The results in this text go back to the supplement of paper PMC7238544.

Where a name gives a salt, the structure may show the parent alone. ± gives the standard deviation of the averaged measurements. This is one part of the list. The data scatter; read single values as rough.

The test system of the assay is hAMSC donor 1. The assay can be described thus: Hoechst total cell count ratio vs vehicle control; hAMSC are human adipose-derived mesenchymal stem cells given an EGFP-luciferase plasmid by lipofection; higher = more cells (less toxicity). Particulars: priming compound concentration 13 µM.
On to `CN(CCOc1ccc(CC2SC(=O)NC2=O)cc1)c1ccccn1` (stereo not drawn) [Rosiglitazone maleate], for which the “Hoechst total cell count ratio” value was found to be 1.14 ± 0.061. `C[C@](N)(Cc1ccc(O)cc1)C(=O)O` [alpha-Methyl-L-tyrosine]: the “Hoechst total cell count ratio” value amounted to 1.34 ± 0.16.

For the molecule `COc1cc(OC)c(C(=O)CCCN2CCCC2)c(OC)c1` [Buflomedil hydrochloride], the “Hoechst total cell count ratio” value is 1.18 ± 0.061. With `COCCOC(=O)C1=C(C)NC(C)=C(C(=O)OC(C)C)C1c1cccc([N+](=O)[O-])c1` (stereo not drawn) [Nimodipine] the figure was 1.32 ± 0.041. Consider `O=C(CCCN1CC=C(n2c(=O)[nH]c3ccccc32)CC1)c1ccc(F)cc1` [Droperidol], for which the “Hoechst total cell count ratio” value is 1.24 ± 0.024. Under `CN1[C@@H]2CC[C@H]1C[C@@H](OC(=O)c1c[nH]c3ccccc13)C2` [Tropisetron hydrochloride] stands 1.19 ± 0.13; under `CN1[C@@H](CC(=O)c2ccccc2)CCC[C@H]1C[C@H](O)c1ccccc1` [Lobeline hydrochloride], 1.41 ± 0.13.

Turning to `CN(C)CCCC1(c2ccc(F)cc2)OCc2cc(C#N)ccc21` (stereo not drawn) [Citalopram hydrobromide], the “Hoechst total cell count ratio” value turned out to be 1.24 ± 0.064. With `CN(C)CCc1c[nH]c2ccc(Cn3cncn3)cc12` [Rizatriptan benzoate] the figure was 1.04 ± 0.069. Consider `Nc1ncn([C@@H]2O[C@H](CO)[C@@H](O)[C@H]2O)c(=O)n1` [5-Azacytidine], for which the “Hoechst total cell count ratio” value was determined as 1.13 ± 0.055. With `O=C(O)CCc1nc(-c2ccccc2)c(-c2ccccc2)o1` [Oxaprozin] the figure was 1.15 ± 0.075. In the case of `CN1CC(=O)N2[C@H](c3ccc4c(c3)OCO4)c3[nH]c4ccccc4c3C[C@@H]2C1=O` [Tadalafil], the “Hoechst total cell count ratio” value was determined as 1.53 ± 0.14. As to `O=c1c(O[C@@H]2O[C@H](CO)[C@@H](O)[C@H](O)[C@H]2O)c(-c2ccc(O)c(O)c2)oc2cc(O)cc(O)c12` [Isoquercitrin], the “Hoechst total cell count ratio” value turned out to be 0.875 ± 0.058.
